Results reported in PMC4838910.
No constants are given. Whether binding was seen depends on the method and setting. Some results given as binding are weak or reduced against the parent protein; the word gives no strength. Tags and fused reporters may be left off the sequences shown.

The chains behind the UniProt entries cited, without tags or fusion partners. Residues count along the entry.
UniProt P28307, residues 22-151: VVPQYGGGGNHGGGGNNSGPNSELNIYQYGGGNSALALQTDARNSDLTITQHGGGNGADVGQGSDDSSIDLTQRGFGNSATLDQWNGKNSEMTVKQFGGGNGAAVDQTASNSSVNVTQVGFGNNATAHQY

Molecular target: T1, CsgC(9-110) with a C-terminal hexahistidine tag (E. coli) (UniProt P52107)
T1 sequence: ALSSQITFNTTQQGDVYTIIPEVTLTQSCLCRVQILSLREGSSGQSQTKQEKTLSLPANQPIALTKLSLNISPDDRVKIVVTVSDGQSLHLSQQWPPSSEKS
Test: NMR titration; 2D 1H-15N NMR spectra of 20 uM CsgC or CsgH in the presence of a 3-fold excess of CsgA; both purified

binding: binds weakly
Substance: CsgA (mature form, residues 22-151), E. coli (from UniProt P28307 22-151)
